From PubChem BioAssay AID248 (DTP/NCI, 2004)
The list is a part of this screen's results and no random one: it is rich in T/C values a quarter to a half above the control, in often repeated tests (any T/C) and in doses without a T/C. Further doses and runs are listed elsewhere. T/C gives the treated animals as a percentage of the vehicle group. Some doses have a count of surviving animals in place of a T/C: the source files T/C as zero there, which appears to mark a toxic dose or a test without result, not a measured value. Some survivor counts are full or nearly so, which does not show that the dose was tolerated: the source hardly ever lists a survival T/C far under the control, and the zero likely stands for such cases as well. Counts of survivors are from the toxicity check (mostly the fifth day) where no day follows; animals may have died later. Schedules are NCI's codes, taken here to give the interval after Q, in days (D) or hours (H), and the number of doses after X. Some entries were tested several times; the values are given in rising order. Some schedule codes hold Z or #, which are not explained here. Some structures stand for samples that the source files as different forms (salt, stereo form or complex); doses refer to the form tested. For survival time, this PubChem deposit counts one and a half times the control or more as active, and values a quarter to a half above the control carry no call in these data; other NCI protocols may use other cut-offs. Some T/C values are followed by the survivors on the day toxicity was checked, most often the fifth; where none is given, no animal had died by that day.

System: L1210 leukemia ip in BDF1 mice, survival T/C
Assay: NCI In Vivo Anticancer Drug Screen. Data for tumor model L1210 Leukemia (intraperitoneal) in B6D2F1 (BDF1) mice
Conditions: T/C endpoint: mean survival time, higher T/C = longer survival
[1] = dose: 400.0 mg/kg/injection, schedule: Q01DX001 (ip), vehicle: carboxymethylcellulose (CMC)
[2] = dose: 120.0 mg/kg/injection, schedule: Q01DX Z (ip), vehicle: saline
[3] = dose: 200.0 mg/kg/injection, schedule: Q01DX001 (ip), vehicle: saline
[4] = dose: 400.0 mg/kg/injection, schedule: Q01DX001 (ip), vehicle: saline
[5] = dose: 400.0 mg/kg/injection, schedule: Q04DX003 (ip), vehicle: Klucel (hydroxypropylcellulose) (HPC)
[6] = dose: 100.0 mg/kg/injection, schedule: Q01DX009 (ip), vehicle: Klucel (hydroxypropylcellulose) (HPC)
[7] = dose: 150.0 mg/kg/injection, schedule: Q01DX001 (ip), vehicle: carboxymethylcellulose (CMC)
[8] = dose: 300.0 mg/kg/injection, schedule: Q01DX001 (ip), vehicle: carboxymethylcellulose (CMC)
[9] = dose: 400.0 mg/kg/injection, schedule: Q04DX003 (ip), vehicle: saline with Tween-80

Q: `Nc1ccccc1C(=O)O` was tested. Which T/C [1] did it give?
A: The T/C was 143 % of control.

Q: Which T/C (dose: 30.0 mg/kg/injection, schedule: Q01DX Z (ip), vehicle: saline) does the source give for `CNC(=O)c1cc(NC(=O)Nc2cccc(C3=NCCN3)c2)cc(NC(=O)Nc2cccc(C3=NCCN3)c2)c1` here?
A: The T/C was 127 % of control.

Q: And the survivor count [2]?
A: Its survivor count is 0 of 6.

Q: `O=C(Nc1ccc(C2=NCCN2)cc1)c1cc(C(=O)Nc2ccc(C3=NCCN3)cc2)ncn1` was tested. Which T/C (dose: 3.75 mg/kg/injection, schedule: Q01DX Z (ip), vehicle: carboxymethylcellulose (CMC)) did it give?
A: The T/C was 132 % of control.

Q: And the T/C (dose: 7.5 mg/kg/injection, schedule: Q01DX Z (ip), vehicle: carboxymethylcellulose (CMC))?
A: The T/C was 143 % of control.

Q: And the survivor count (dose: 60.0 mg/kg/injection, schedule: Q01DX015 (ip), vehicle: methylcellulose (MC))?
A: Its survivor count is 1 of 6.

Q: And the survivor count (dose: 75.0 mg/kg/injection, schedule: Q01DX001 (ip), vehicle: methylcellulose (MC))?
A: Its survivor count is 2 of 6.

Q: And the T/C (dose: 79.0 mg/kg/injection, schedule: Q01DX001 (ip), vehicle: other)?
A: Its T/C is 138 % of control.

Q: And the T/C (dose: 120.0 mg/kg/injection, schedule: Q01DX001 (ip), vehicle: carboxymethylcellulose (CMC))?
A: Its T/C is 143 % of control.

Q: And the T/C (dose: 120.0 mg/kg/injection, schedule: Q01DX001 (ip), vehicle: other)?
A: Its T/C is 143 % of control.

Q: What about the survivor count (dose: 120.0 mg/kg/injection, schedule: Q01DX015 (ip), vehicle: methylcellulose (MC)) of the same molecule?
A: Its survivor count is 0 of 6.

Q: What about the survivor count (dose: 120.0 mg/kg/injection, schedule: Q01DX015 (ip), vehicle: other) of the same molecule?
A: The survivor count was 0 of 6.

Q: And the survivor count (dose: 150.0 mg/kg/injection, schedule: Q01DX001 (ip), vehicle: methylcellulose (MC))?
A: The survivor count was 0 of 6.

Q: What about the T/C (dose: 270.0 mg/kg/injection, schedule: Q01DX001 (ip), vehicle: other) of the same molecule?
A: Its T/C is 149 % of control.

Q: And the survivor count (dose: 300.0 mg/kg/injection, schedule: Q01DX001 (ip), vehicle: methylcellulose (MC))?
A: Its survivor count is 0 of 6.

Q: What about the survivor count (dose: 405.0 mg/kg/injection, schedule: Q01DX001 (ip), vehicle: other) of the same molecule?
A: The survivor count was 0 of 10.

Q: Which results are given for `c1cnc(OCCN2CC2)nc1`?
A: survivor count (dose: 100.0 mg/kg/injection, schedule: Q01DX001 (ip), vehicle: carboxymethylcellulose (CMC)): 4 of 6 and 5 of 6; survivor count (dose: 200.0 mg/kg/injection, schedule: Q01DX001 (ip), vehicle: carboxymethylcellulose (CMC)): 0 of 6; survivor count [1]: 0 of 6

Q: How did the survivor count (dose: 50.0 mg/kg/injection, schedule: Q01DX001 (ip), vehicle: saline) turn out when `Cc1ccc(N2C(N)=NC(N)=NC2(C)C)cc1` was run?
A: Its survivor count is 2 of 6.

Q: What about the survivor count (dose: 100.0 mg/kg/injection, schedule: Q01DX001 (ip), vehicle: saline) of the same molecule?
A: Its survivor count is 1 of 6.

Q: What about the survivor count [3] of the same molecule?
A: The survivor count was 0 of 6.

Q: And the survivor count [4]?
A: Its survivor count is 0 of 6.

Q: Which survivor count (dose: 100.0 mg/kg/injection, schedule: Q04DX003 (ip), vehicle: Klucel (hydroxypropylcellulose) (HPC)) does the source give for `CC(C)(C)c1cc(CN2CCCCC2)cc(C(C)(C)C)c1O` here?
A: The survivor count was 2 of 6.

Q: And the survivor count (dose: 200.0 mg/kg/injection, schedule: Q04DX003 (ip), vehicle: Klucel (hydroxypropylcellulose) (HPC))?
A: Its survivor count is 0 of 6.

Q: And the survivor count [5]?
A: The survivor count was 0 of 6.

Q: Which results are given for `Cn1ncc2c1C1(C)CCC2C1(C)C` (stereo unspecified)?
A: survivor count [6]: 3 of 3; survivor count [5]: 0 of 6

Q: Which survivor count (dose: 8.43 mg/kg/injection, schedule: Q01DX009 (ip), vehicle: olive oil, sesame oil, peanut oil) does the source give for `[C-]#[N+]CCCCCC` here?
A: Its survivor count is 6 of 6.

Q: And the survivor count (dose: 16.87 mg/kg/injection, schedule: Q01DX009 (ip), vehicle: olive oil, sesame oil, peanut oil)?
A: Its survivor count is 6 of 6.

Q: And the survivor count (dose: 33.75 mg/kg/injection, schedule: Q01DX009 (sc), vehicle: saline)?
A: Its survivor count is 2 of 6.

Q: And the survivor count (dose: 67.5 mg/kg/injection, schedule: Q01DX009 (sc), vehicle: saline)?
A: Its survivor count is 0 of 6.

Q: And the survivor count (dose: 135.0 mg/kg/injection, schedule: Q01DX009 (sc), vehicle: saline)?
A: Its survivor count is 0 of 6.

Q: And the survivor count (dose: 200.0 mg/kg/injection, schedule: Q04DX003 (sc), vehicle: olive oil, sesame oil, peanut oil)?
A: Its survivor count is 0 of 6.

Q: What about the survivor count (dose: 305.0 mg/kg/injection, schedule: Q04DX003 (sc), vehicle: olive oil, sesame oil, peanut oil) of the same molecule?
A: The survivor count was 0 of 6.

Q: `Cc1ccc(S(=O)(=O)OC2CC3c4ccccc4C2c2cccc[n+]23)cc1` (stereo unspecified) was tested. Which survivor count (dose: 100.0 mg/kg/injection, schedule: Q04DX003 (ip), vehicle: saline) did it give?
A: Its survivor count is 3 of 6.

Q: What about the survivor count [3] of the same molecule?
A: Its survivor count is 2 of 6.

Q: And the survivor count [4]?
A: Its survivor count is 2 of 6.

Q: What does the source list for `CCOP(=O)(OCC)N1CC1c1ccccc1` (stereo unspecified)?
A: survivor count [7]: 0 of 6; survivor count [8]: 0 of 6

Q: For `CC(=O)OC(C(O)C=O)C(O)C(O)CO` (stereo unspecified) (tested in a mixture with another compound), which survivor count (dose: 400.0 mg/kg/injection, schedule: Q04DX002 (ip), vehicle: Klucel (hydroxypropylcellulose) (HPC)) is on record?
A: The survivor count was 3 of 3.

Q: With `c1ccc(P(=NC2CCCCC2)(c2ccccc2)c2ccccc2)cc1` as the molecule, how does the survivor count (dose: 200.0 mg/kg/injection, schedule: Q04DX003 (ip), vehicle: acetone) read?
A: Its survivor count is 3 of 6.

Q: How did the survivor count (dose: 200.0 mg/kg/injection, schedule: Q01DX009 (ip), vehicle: saline with Tween-80) turn out when `C=C1N(C)c2ccc(Cl)cc2C1(C)C` was run?
A: The survivor count was 6 of 6.

Q: What about the survivor count [9] of the same molecule?
A: Its survivor count is 5 of 6.

Q: With `COc1c(C(=O)Nc2ccc(C3=NCCN3)cc2)cccc1C(=O)Nc1ccc(C2=NCCN2)cc1` as the molecule, how does the survivor count (dose: 60.0 mg/kg/injection, schedule: Q01DX Z (ip), vehicle: saline) read?
A: The survivor count was 0 of 6.

Q: What about the survivor count [2] of the same molecule?
A: Its survivor count is 0 of 6.

Q: `CN(N)C(=O)Nc1ccccc1Cl` was tested. Which survivor count [8] did it give?
A: Its survivor count is 1 of 6.

Q: With `CC(C)=NC(=O)NO.[Cl][Zn][Cl]` as the molecule, how does the survivor count (dose: 75.0 mg/kg/injection, schedule: Q01DX001 (ip), vehicle: carboxymethylcellulose (CMC)) read?
A: The survivor count was 2 of 6.

Q: And the survivor count [7]?
A: The survivor count was 0 of 6.

Q: And the survivor count [8]?
A: The survivor count was 0 of 6.

Q: With `O=[N+]([O-])c1ccc(Oc2ccc[n+]([O-])c2)c([N+](=O)[O-])c1` as the molecule, how does the survivor count (dose: 200.0 mg/kg/injection, schedule: Q01DX009 (ip), vehicle: Klucel (hydroxypropylcellulose) (HPC)) read?
A: Its survivor count is 0 of 6.

Q: And the survivor count (dose: 200.0 mg/kg/injection, schedule: Q04DX003 (ip), vehicle: saline with Tween-80)?
A: The survivor count was 5 of 6.

Q: And the survivor count [9]?
A: The survivor count was 0 of 6.

Q: `O=NN(CCF)C(=O)NC1C2CC3CC(C2)CC1C3` (stereo unspecified) was tested. Which survivor count (dose: 100.0 mg/kg/injection, schedule: Q01DX001 (ip), vehicle: other) did it give?
A: The survivor count was 5 of 10.

Q: What about the survivor count (dose: 200.0 mg/kg/injection, schedule: Q01DX001 (ip), vehicle: other) of the same molecule?
A: Its survivor count is 0 of 10.

Q: What about the survivor count (dose: 400.0 mg/kg/injection, schedule: Q01DX001 (ip), vehicle: other) of the same molecule?
A: The survivor count was 0 of 10.

Q: With `S=C(NCc1ccccc1)NC1CCCCC1` as the molecule, how does the survivor count (dose: 200.0 mg/kg/injection, schedule: Q04DX003 (ip), vehicle: saline) read?
A: Its survivor count is 2 of 6.

Q: With `Cc1ccc(/C(=N\N=C(N)N)C2CC2)cc1` as the molecule, how does the survivor count (dose: 420.0 mg/kg/injection, schedule: Q01DX Z (ip), vehicle: methylcellulose (MC)) read?
A: Its survivor count is 0 of 6.

Q: What about the survivor count (dose: 600.0 mg/kg/injection, schedule: Q01DX Z (ip), vehicle: methylcellulose (MC)) of the same molecule?
A: The survivor count was 0 of 6.

Q: And the survivor count (dose: 960.0 mg/kg/injection, schedule: Q01DX Z (oral), vehicle: methylcellulose (MC))?
A: The survivor count was 3 of 6.

Q: How did the survivor count [6] turn out when `O=C(CNC(=O)Nc1nccs1)N/N=C/c1cccc([N+](=O)[O-])c1` was run?
A: The survivor count was 6 of 6.

Q: What about the survivor count (dose: 400.0 mg/kg/injection, schedule: Q01DX009 (ip), vehicle: Klucel (hydroxypropylcellulose) (HPC)) of the same molecule?
A: Its survivor count is 6 of 6.

Q: What does the source list for `Cc1cc2c3ccccc3ccc2[n+]2ccccc12`?
A: T/C (dose: 8.75 mg/kg/injection, schedule: Q01DX009 (ip), vehicle: saline): 126 % of control; T/C (dose: 17.5 mg/kg/injection, schedule: Q01DX009 (ip), vehicle: saline): 132 % of control; T/C (dose: 35.0 mg/kg/injection, schedule: Q01DX009 (ip), vehicle: saline): 140 % of control [5 of 6 alive]; survivor count (dose: 36.0 mg/kg/injection, schedule: Q01DX009 (ip), vehicle: acetone): 1 of 6; survivor count (dose: 36.0 mg/kg/injection, schedule: Q01DX009 (ip), vehicle: saline): 0 of 6; survivor count (dose: 70.0 mg/kg/injection, schedule: Q01DX009 (ip), vehicle: saline): 0 of 6; survivor count (dose: 72.0 mg/kg/injection, schedule: Q01DX009 (ip), vehicle: saline): 0 of 6; survivor count [3]: 1 of 4; survivor count [4]: 0 of 4
